Experimental data: PubChem BioAssay AID652272 (Drosophila RNAi Screening Center, 2013)
The deposit covers about 21,000 reagents; below is an unselected part of those with a known target gene and a result. Over the whole deposit, 503 (2.4%) are marked active. 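Raw plate light values, not normalised; calls rest on replicate z-scores that were not deposited; hits include reporter decreases as well as increases.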 Entries without a mark were called inactive. Names joined by + are all predicted targets of the reagent. Not stated in the record: the amount of reagent, the time to read-out.

Screen: 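Genome-wide knock-down search for components of Hedgehog signalling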 (primary screen)
System: Drosophila clone 8 (Cl8) cells
Reagent: long dsRNA against Drosophila genes
Detection: 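Firefly light from a Hedgehog-responsive ptc promoter reporter and Renilla reference light, both read on a plate reader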
Direction: firefly Hh reporter signal: higher = more ptc reporter light; Renilla reference signal: higher = more Renilla control light
Active means: 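Called a hit if the two-replicate mean z-score lies below -2 or above +3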
Meaning of the calls: active = hit: reporter lowered or raised; inactive = not a hit

| gene knocked down | amplicon | firefly Hh reporter signal, replicate 1 | firefly Hh reporter signal, replicate 2 | firefly Hh reporter signal, replicate 3 | Renilla reference signal, replicate 1 | Renilla reference signal, replicate 2 |
| --- | --- | --- | --- | --- | --- | --- |
| Obp99b | DRSC16264 | 74080 | 82454 | – | 2868 | 2568 |
| Vps51 | DRSC06519 | 1.57e5 | 69218 | – | 6198 | 2956 |
| Alr | DRSC19469 | 71381 | 2.88e5 | – | 902 | 11749 |
| CG1628 | DRSC18109 | 77491 | 75419 | – | 2378 | 2013 |
| Ipo9 | DRSC16813 | 57159 | 1.23e5 | – | 2081 | 3168 |
| pip | DRSC11382 | 68762 | 81132 | – | 2562 | 2272 |
| CG1265 | DRSC08288 | 1.21e5 | 52384 | – | 3334 | 2188 |
| Ost48 | DRSC18693 | 94688 | 80656 | – | 2341 | 1869 |
| CG32720 | DRSC17529 | 5.34e5 | 2.08e5 | – | 29733 | 4426 |
| CG15880 | DRSC00474 | 1.05e5 | 85984 | – | 2641 | 2230 |
| Dgk | DRSC05064 | 66789 | 1.47e5 | – | 1969 | 6077 |
| Dgk | DRSC05065 | 1.22e5 | 2.02e5 | – | 3168 | 8612 |
| Dgk | DRSC06171 | 87453 | 64647 | – | 2099 | 5877 |
| Dgk | DRSC06782 | 1.31e5 | 8.32e5 | 82886 | 3737 | 47201 |
| Iswi | DRSC07446 | 66684 | 49876 | – | 1675 | 3000 |
| Lint-O | DRSC18468 | 61332 | 1.53e5 | – | 1853 | 6914 |
| Usp12-46 | DRSC16175 | 5.60e5 | 73347 | – | 27892 | 2528 |
| Rab4 + CG42239 | DRSC05667 | 96807 | 1.57e5 | – | 2467 | 7250 |
| CG3557 | DRSC00614 | 1.25e5 | 82252 | – | 5085 | 3286 |
| Gga | DRSC18260 | 71018 | 63507 | – | 2001 | 1298 |
| S6kII | DRSC20645 | 1.04e5 | 1.02e5 | – | 2455 | 2678 |
| rngo | DRSC19903 | 5.57e5 | 74946 | – | 3520 | 3520 |
| CG12104 | DRSC08254 | 88441 (active) | 69904 | – | 6220 | 4604 |
